{"source": "PubChem BioAssay AID652243 (Drosophila RNAi Screening Center, 2013)", "aim": "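Fly genes required for human androgen receptor driven transcription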 (primary screen)", "cell system": "Drosophila S2R+ cells", "reagents": "long dsRNA against Drosophila genes", "timing": "72 h (48 h, then 24 h hormone)", "treatment": "synthetic androgen R1881 at 10 nM for 24 h", "detection": "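Firefly light from an androgen-responsive reporter and Renilla control light per well, raw and unnormalised, for each of two replicates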", "reading the numbers": "firefly reporter light: higher = more light from androgen-responsive reporter; Renilla control light: higher = more constitutive control signal (cell number, transfection)", "rule for the call": "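Across duplicate plates, a knock-down whose log firefly/Renilla ratio shifted a set fold down or up from the GFP/LacZ control mean was a hit; the downward cut appears as both 1.5 and 3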", "calls": "active = hit: reporter lowered or raised; inactive = no hit", "note": "The deposit covers about 24,000 reagents; shown is a random part of those with a known target gene and a result. In the full data, 246 (1%) are marked active. 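Plates not normalised; calls are printed but the firefly/Renilla ratio behind them is not deposited; fold cut for lowering reported inconsistently.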 Raw values vary from plate to plate and are shown uncorrected. Entries without a mark were called inactive. A plus sign joins genes that one reagent is predicted to hit. Not stated in the record: the amount of reagent."}
{"gene": "Odj (Oddjob)", "DRSC id": "DRSC16234", "firefly reporter light, replicate 1": 69451, "firefly reporter light, replicate 2": 56529, "Renilla control light, replicate 1": 4.02e5, "Renilla control light, replicate 2": 4.23e5}
{"gene": "dati (datilografo)", "DRSC id": "DRSC17128", "firefly reporter light, replicate 1": 81402, "firefly reporter light, replicate 2": 92066, "Renilla control light, replicate 1": 8.46e5, "Renilla control light, replicate 2": 5.75e5}
{"gene": "dati (datilografo)", "DRSC id": "DRSC17140", "firefly reporter light, replicate 1": 1.34e5, "firefly reporter light, replicate 2": 2.08e5, "Renilla control light, replicate 1": 4.30e6, "Renilla control light, replicate 2": 2.90e6}
{"gene": "dati (datilografo)", "DRSC id": "DRSC17153", "firefly reporter light, replicate 1": 5.04e5, "firefly reporter light, replicate 2": 5.72e5, "Renilla control light, replicate 1": 3.06e6, "Renilla control light, replicate 2": 2.25e6}
{"gene": "dati (datilografo)", "DRSC id": "DRSC25407", "firefly reporter light, replicate 1": 9.60e5, "firefly reporter light, replicate 2": 1.08e6, "Renilla control light, replicate 1": 5.41e5, "Renilla control light, replicate 2": 6.05e5}
{"gene": "modSP (modular serine protease)", "DRSC id": "DRSC16726", "firefly reporter light, replicate 1": 1.64e5, "firefly reporter light, replicate 2": 2.03e5, "Renilla control light, replicate 1": 2.97e6, "Renilla control light, replicate 2": 3.29e6}
{"gene": "modSP (modular serine protease)", "DRSC id": "DRSC16857", "firefly reporter light, replicate 1": 84906, "firefly reporter light, replicate 2": 69212, "Renilla control light, replicate 1": 1.89e6, "Renilla control light, replicate 2": 1.69e6}
{"gene": "modSP (modular serine protease)", "DRSC id": "DRSC21489", "firefly reporter light, replicate 1": 6.76e5, "firefly reporter light, replicate 2": 5.11e5, "Renilla control light, replicate 1": 2.10e6, "Renilla control light, replicate 2": 2.23e6}
{"gene": "srw (shrew)", "DRSC id": "DRSC08201", "firefly reporter light, replicate 1": 83210, "firefly reporter light, replicate 2": 90091, "Renilla control light, replicate 1": 9.25e5, "Renilla control light, replicate 2": 1.15e6}
{"gene": "Tsp66A + CG42661 + CG42660", "DRSC id": "DRSC10233", "firefly reporter light, replicate 1": 2.03e5, "firefly reporter light, replicate 2": 2.34e5, "Renilla control light, replicate 1": 2.49e6, "Renilla control light, replicate 2": 2.70e6}
{"gene": "prg (piragua)", "DRSC id": "DRSC03324", "firefly reporter light, replicate 1": 1.79e5, "firefly reporter light, replicate 2": 1.70e5, "Renilla control light, replicate 1": 1.95e6, "Renilla control light, replicate 2": 1.86e6}
{"gene": "CG4676", "DRSC id": "DRSC06879", "firefly reporter light, replicate 1": 1.75e5, "firefly reporter light, replicate 2": 2.02e5, "Renilla control light, replicate 1": 1.44e6, "Renilla control light, replicate 2": 1.37e6}
{"gene": "eve (even skipped)", "DRSC id": "DRSC24980", "firefly reporter light, replicate 1": 4.11e5, "firefly reporter light, replicate 2": 4.29e5, "Renilla control light, replicate 1": 6.01e5, "Renilla control light, replicate 2": 5.52e5}
{"gene": "Ufc1 (Ubiquitin-fold modifier conjugating enzyme 1)", "DRSC id": "DRSC07156", "firefly reporter light, replicate 1": 1.27e6, "firefly reporter light, replicate 2": 1.31e6, "Renilla control light, replicate 1": 2.21e6, "Renilla control light, replicate 2": 1.73e6}
{"gene": "LSm7 (Like Sm 7)", "DRSC id": "DRSC02251", "firefly reporter light, replicate 1": 1.65e5, "firefly reporter light, replicate 2": 1.59e5, "Renilla control light, replicate 1": 1.59e6, "Renilla control light, replicate 2": 1.22e6}
{"gene": "CG13698", "DRSC id": "DRSC10047", "firefly reporter light, replicate 1": 29894, "firefly reporter light, replicate 2": 52209, "Renilla control light, replicate 1": 2.76e5, "Renilla control light, replicate 2": 2.61e5}
{"gene": "CG1304", "DRSC id": "DRSC20494", "firefly reporter light, replicate 1": 3.19e5, "firefly reporter light, replicate 2": 2.21e5, "Renilla control light, replicate 1": 9.16e5, "Renilla control light, replicate 2": 7.14e5}
{"gene": "CG1304", "DRSC id": "DRSC25704", "firefly reporter light, replicate 1": 7.91e5, "firefly reporter light, replicate 2": 8.41e5, "Renilla control light, replicate 1": 1.61e6, "Renilla control light, replicate 2": 1.97e6}
{"gene": "CG18545", "DRSC id": "DRSC15343", "firefly reporter light, replicate 1": 1.04e5, "firefly reporter light, replicate 2": 1.67e5, "Renilla control light, replicate 1": 1.43e6, "Renilla control light, replicate 2": 1.99e6}
{"gene": "bru2 (bruno 2)", "DRSC id": "DRSC01246", "firefly reporter light, replicate 1": 1.99e5, "firefly reporter light, replicate 2": 3.05e5, "Renilla control light, replicate 1": 5.79e5, "Renilla control light, replicate 2": 3.65e5}
{"gene": "bru2 (bruno 2)", "DRSC id": "DRSC01247", "firefly reporter light, replicate 1": 1.11e5, "firefly reporter light, replicate 2": 2.06e5, "Renilla control light, replicate 1": 2.47e5, "Renilla control light, replicate 2": 1.92e5}
{"gene": "bru2 (bruno 2)", "DRSC id": "DRSC01249", "firefly reporter light, replicate 1": 3.51e5, "firefly reporter light, replicate 2": 5.40e5, "Renilla control light, replicate 1": 4.91e5, "Renilla control light, replicate 2": 4.12e5}
{"gene": "bru2 (bruno 2)", "DRSC id": "DRSC25003", "firefly reporter light, replicate 1": 4.89e5, "firefly reporter light, replicate 2": 4.29e5, "Renilla control light, replicate 1": 7.13e5, "Renilla control light, replicate 2": 7.02e5}

Entries above whose target name begins with M or m:
{"gene": "modSP (modular serine protease)", "DRSC id": "DRSC16726", "firefly reporter light, replicate 1": 1.64e5, "firefly reporter light, replicate 2": 2.03e5, "Renilla control light, replicate 1": 2.97e6, "Renilla control light, replicate 2": 3.29e6}
{"gene": "modSP (modular serine protease)", "DRSC id": "DRSC16857", "firefly reporter light, replicate 1": 84906, "firefly reporter light, replicate 2": 69212, "Renilla control light, replicate 1": 1.89e6, "Renilla control light, replicate 2": 1.69e6}
{"gene": "modSP (modular serine protease)", "DRSC id": "DRSC21489", "firefly reporter light, replicate 1": 6.76e5, "firefly reporter light, replicate 2": 5.11e5, "Renilla control light, replicate 1": 2.10e6, "Renilla control light, replicate 2": 2.23e6}
